Test results taken from the supplement of paper PMC10849652.
The other results are listed elsewhere or left out.

Sequences of proteins named here, by UniProt entry; tags and fusion partners are left off. A change or cut given only in a name is not applied to a line headed by its entry.
UniProt Q8IZ52: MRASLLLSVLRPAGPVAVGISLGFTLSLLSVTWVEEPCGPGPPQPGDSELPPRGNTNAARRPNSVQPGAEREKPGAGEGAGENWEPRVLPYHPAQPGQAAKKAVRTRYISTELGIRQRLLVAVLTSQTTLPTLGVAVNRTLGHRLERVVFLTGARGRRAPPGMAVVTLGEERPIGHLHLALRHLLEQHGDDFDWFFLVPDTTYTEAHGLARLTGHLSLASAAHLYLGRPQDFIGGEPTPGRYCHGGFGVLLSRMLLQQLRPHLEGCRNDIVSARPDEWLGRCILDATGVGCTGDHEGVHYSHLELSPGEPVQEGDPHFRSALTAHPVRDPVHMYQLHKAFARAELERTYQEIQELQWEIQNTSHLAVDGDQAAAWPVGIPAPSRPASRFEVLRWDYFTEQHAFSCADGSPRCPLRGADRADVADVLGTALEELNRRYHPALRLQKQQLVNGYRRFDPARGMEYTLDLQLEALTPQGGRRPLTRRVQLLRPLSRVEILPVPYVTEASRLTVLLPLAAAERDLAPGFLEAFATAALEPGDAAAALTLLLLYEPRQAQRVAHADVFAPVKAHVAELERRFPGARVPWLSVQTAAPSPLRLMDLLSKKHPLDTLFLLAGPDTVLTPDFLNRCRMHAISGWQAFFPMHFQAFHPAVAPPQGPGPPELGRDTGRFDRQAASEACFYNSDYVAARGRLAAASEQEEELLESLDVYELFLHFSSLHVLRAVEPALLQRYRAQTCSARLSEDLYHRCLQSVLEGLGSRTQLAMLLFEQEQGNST
UniProt Q9Y3D0: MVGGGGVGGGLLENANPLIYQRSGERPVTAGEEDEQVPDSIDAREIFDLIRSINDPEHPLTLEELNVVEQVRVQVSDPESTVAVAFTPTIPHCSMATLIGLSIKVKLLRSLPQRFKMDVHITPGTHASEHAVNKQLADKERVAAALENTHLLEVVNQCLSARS
UniProt Q9UFF9, whole entry, looked up: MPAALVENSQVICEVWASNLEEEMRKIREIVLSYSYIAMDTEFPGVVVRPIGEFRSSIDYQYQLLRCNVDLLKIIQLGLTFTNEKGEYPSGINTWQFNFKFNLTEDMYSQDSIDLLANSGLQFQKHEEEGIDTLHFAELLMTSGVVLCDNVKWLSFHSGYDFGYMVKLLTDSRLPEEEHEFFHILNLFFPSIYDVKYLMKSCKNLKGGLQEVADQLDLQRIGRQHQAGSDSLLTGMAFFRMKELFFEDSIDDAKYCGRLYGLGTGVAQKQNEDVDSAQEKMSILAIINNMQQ
UniProt Q5EBM0: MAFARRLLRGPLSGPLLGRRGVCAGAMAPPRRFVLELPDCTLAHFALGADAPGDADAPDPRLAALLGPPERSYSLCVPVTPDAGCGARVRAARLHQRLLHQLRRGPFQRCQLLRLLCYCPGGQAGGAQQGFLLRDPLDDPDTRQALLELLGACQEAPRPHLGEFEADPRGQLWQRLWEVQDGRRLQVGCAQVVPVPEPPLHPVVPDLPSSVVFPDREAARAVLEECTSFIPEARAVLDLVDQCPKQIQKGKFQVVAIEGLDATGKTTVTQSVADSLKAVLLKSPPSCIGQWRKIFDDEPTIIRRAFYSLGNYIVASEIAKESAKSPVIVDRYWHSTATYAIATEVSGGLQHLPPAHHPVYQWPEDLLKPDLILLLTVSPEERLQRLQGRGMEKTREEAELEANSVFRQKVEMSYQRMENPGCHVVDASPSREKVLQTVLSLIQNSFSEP
UniProt Q15417: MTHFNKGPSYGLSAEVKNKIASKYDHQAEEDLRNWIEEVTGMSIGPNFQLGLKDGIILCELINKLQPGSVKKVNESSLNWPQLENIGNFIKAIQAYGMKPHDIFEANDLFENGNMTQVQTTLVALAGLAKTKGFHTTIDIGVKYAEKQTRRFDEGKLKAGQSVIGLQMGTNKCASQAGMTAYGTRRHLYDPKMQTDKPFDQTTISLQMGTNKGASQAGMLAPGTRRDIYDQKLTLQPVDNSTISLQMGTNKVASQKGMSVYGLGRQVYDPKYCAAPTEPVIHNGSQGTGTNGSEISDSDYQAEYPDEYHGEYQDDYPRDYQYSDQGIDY
UniProt O75122: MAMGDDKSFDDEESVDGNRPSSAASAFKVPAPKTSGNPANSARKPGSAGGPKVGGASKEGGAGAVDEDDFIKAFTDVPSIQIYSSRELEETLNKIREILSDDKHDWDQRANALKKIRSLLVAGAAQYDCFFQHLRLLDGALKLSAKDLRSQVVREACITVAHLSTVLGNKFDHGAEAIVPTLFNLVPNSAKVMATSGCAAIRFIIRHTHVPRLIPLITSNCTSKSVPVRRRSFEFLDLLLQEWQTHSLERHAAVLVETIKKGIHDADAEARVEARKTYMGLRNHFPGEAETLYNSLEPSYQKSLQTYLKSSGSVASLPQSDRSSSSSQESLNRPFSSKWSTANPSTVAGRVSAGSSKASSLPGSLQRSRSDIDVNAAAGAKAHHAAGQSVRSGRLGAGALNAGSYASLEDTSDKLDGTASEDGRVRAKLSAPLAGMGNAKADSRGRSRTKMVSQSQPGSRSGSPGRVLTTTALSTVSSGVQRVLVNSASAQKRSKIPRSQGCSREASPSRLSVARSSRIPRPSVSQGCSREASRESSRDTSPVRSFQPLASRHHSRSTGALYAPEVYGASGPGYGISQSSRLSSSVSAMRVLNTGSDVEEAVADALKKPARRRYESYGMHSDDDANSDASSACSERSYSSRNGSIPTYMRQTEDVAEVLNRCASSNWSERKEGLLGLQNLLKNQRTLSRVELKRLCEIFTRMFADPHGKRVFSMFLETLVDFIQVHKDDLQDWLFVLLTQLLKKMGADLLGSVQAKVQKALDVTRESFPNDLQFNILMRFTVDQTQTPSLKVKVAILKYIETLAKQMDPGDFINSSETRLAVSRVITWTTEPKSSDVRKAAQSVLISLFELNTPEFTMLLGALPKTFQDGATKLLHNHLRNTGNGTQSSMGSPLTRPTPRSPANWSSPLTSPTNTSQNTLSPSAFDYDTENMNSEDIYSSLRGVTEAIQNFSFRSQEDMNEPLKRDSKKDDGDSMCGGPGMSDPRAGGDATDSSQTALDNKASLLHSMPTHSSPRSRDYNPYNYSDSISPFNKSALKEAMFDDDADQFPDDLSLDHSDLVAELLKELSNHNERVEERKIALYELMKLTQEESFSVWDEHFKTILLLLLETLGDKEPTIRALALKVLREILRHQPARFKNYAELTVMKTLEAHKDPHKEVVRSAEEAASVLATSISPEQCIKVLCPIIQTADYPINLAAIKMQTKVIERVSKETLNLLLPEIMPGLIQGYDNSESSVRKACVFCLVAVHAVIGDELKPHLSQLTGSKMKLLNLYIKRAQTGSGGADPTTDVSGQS
UniProt P38432, whole entry, looked up: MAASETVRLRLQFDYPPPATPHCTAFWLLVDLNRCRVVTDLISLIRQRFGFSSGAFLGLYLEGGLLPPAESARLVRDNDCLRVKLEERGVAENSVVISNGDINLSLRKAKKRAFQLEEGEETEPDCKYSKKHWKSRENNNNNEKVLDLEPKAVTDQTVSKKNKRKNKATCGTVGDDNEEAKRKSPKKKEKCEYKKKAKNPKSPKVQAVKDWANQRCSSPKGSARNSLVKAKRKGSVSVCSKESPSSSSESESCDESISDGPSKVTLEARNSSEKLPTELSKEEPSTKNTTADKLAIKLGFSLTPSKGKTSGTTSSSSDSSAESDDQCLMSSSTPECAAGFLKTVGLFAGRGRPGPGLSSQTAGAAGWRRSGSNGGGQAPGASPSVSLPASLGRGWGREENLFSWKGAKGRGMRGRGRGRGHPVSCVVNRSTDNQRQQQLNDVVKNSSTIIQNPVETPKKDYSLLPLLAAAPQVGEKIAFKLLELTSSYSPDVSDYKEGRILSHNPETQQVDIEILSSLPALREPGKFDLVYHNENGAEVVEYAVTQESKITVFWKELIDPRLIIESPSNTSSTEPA
UniProt Q9P003: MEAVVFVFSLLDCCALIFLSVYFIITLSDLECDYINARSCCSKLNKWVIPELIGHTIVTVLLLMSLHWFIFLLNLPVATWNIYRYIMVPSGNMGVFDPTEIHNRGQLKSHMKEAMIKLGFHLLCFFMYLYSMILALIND
UniProt P33552, whole entry, looked up: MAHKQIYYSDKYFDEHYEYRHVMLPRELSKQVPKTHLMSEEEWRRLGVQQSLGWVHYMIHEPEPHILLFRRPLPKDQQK
UniProt G5E9Z2: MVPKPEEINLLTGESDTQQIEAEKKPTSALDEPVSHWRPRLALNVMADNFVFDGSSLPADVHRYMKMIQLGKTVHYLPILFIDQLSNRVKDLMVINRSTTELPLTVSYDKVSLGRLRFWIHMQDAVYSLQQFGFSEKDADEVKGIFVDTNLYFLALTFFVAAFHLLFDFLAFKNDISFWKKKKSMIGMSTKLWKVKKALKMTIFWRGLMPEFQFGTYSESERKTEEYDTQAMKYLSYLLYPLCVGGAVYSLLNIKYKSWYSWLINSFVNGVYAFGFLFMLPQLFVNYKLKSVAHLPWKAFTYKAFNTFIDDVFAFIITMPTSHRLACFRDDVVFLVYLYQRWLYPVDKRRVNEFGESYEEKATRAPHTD
UniProt Q9NWW5: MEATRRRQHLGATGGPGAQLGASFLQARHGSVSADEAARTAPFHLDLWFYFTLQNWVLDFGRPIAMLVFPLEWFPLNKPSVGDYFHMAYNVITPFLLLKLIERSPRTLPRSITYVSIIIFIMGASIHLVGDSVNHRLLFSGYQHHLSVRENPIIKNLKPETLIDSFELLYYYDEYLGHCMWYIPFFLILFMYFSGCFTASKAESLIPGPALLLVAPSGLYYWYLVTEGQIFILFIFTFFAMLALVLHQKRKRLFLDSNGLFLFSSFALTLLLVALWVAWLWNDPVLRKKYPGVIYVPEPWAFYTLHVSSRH
UniProt P05452, whole entry, looked up: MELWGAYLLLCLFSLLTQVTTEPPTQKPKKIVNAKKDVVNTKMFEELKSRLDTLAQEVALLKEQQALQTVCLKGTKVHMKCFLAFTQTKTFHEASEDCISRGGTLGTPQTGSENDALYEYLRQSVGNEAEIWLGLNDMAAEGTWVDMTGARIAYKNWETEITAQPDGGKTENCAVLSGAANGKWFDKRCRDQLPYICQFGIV
UniProt Q14011: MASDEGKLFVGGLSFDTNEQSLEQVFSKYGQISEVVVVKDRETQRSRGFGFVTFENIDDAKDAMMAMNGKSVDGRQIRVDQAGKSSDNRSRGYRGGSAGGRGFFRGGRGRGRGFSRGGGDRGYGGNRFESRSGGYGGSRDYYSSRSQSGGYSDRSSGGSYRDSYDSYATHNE
UniProt Q86X95: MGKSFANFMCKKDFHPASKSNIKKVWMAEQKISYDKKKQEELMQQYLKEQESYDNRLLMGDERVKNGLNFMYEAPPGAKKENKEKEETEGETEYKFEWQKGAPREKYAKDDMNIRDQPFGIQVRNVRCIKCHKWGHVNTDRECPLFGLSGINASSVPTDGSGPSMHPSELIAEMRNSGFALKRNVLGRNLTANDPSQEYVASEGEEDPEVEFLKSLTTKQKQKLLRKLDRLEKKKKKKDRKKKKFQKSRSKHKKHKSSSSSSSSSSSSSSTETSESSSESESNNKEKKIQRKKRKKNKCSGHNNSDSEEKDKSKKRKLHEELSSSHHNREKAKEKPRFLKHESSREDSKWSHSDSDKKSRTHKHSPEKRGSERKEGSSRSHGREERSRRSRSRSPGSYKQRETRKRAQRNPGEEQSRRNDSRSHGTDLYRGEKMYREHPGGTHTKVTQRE
UniProt O94985: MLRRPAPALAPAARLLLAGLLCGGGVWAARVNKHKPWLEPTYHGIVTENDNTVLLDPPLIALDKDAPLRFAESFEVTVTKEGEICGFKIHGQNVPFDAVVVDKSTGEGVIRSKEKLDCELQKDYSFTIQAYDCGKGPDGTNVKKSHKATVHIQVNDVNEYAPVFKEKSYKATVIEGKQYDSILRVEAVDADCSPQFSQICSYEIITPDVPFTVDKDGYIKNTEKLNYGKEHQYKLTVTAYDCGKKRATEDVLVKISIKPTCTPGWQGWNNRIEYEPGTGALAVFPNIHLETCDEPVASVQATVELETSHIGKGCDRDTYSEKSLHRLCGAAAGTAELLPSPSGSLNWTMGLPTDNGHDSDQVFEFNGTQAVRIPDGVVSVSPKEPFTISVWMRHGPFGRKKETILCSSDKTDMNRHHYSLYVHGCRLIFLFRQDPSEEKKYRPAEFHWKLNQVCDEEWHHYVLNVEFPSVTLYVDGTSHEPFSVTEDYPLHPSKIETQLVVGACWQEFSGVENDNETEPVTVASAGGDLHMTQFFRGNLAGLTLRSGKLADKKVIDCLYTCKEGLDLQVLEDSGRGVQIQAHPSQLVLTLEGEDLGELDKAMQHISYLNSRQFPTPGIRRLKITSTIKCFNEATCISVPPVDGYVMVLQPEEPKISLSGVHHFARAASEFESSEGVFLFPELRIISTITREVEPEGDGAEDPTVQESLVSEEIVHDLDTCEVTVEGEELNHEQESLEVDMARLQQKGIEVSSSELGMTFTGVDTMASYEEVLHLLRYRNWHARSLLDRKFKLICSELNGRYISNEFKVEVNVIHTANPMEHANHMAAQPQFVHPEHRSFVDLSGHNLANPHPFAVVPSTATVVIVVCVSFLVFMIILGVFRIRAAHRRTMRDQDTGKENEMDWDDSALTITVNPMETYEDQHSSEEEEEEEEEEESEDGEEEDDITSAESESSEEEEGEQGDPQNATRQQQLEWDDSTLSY

Compound: Cc1nc(Nc2n[nH]c3c2CN(C(=O)N[C@H](CN(C)C)c2ccccc2)C3(C)C)c2sccc2n1
Experiment: log2 fold change, soluble protein after heating vs DMSO (PISA); higher = thermal stabilisation; K562 cells, 10 uM, 30 min; active = over 0.2 and 3.5 SD of the protein, either way, in both replicates (recomputed)
Method in brief: (§1)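 For each measurement, 10 μM compound was applied for 30 min to K562 cells at 2×10^6 cells/mL. Aliquots were heated for 3 min across 48°C-58°C, pooled, and extracted in PBS with 0.5% NP-40 at 4°C; the supernatant after 21,000xg for 90 min was soluble protein. This was quantified by TMTpro 16plex LC-MS/MS with channel sums equalised, and thermal stability was reported relative to control samples from duplicates, on a log2 fold-change scale.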

log2 fold change, inactive:
CHPF (UniProt Q8IZ52) -0.033, CIAO2B (UniProt Q9Y3D0) -0.133, CNOT8 (UniProt Q9UFF9) -0.012, CLASRP (UniProt Q8N2M8) -0.245, CMPK2 (UniProt Q5EBM0) -0.018, CNN3 (UniProt Q15417) -0.056, CLASP2 (UniProt O75122) -0.278, CMTM3 (UniProt Q96MX0) -0.007, CLN3 (UniProt Q13286) 0.002, CLINT1 (UniProt Q14677) -0.048, COIL (UniProt P38432) -0.165, COL15A1 (UniProt P39059) 0.153, CHST11 (UniProt Q9NPF2) -0.026, CLIC6 (UniProt Q96NY7) -0.165, CMTM6 (UniProt Q9NX76) 0.004, CLIP1 isoform 2 (UniProt P30622) -0.015, CMTM4 (UniProt Q8IZR5) -0.129, CHST10 (UniProt O43529) -0.081, CNIH4 (UniProt Q9P003) -0.012, CKS2 (UniProt P33552) -0.188, CMYA5 (UniProt Q8N3K9) 0.034, CHST2 (UniProt Q9Y4C5) -0.129, CLPTM1L (UniProt G5E9Z2) 0.099, CLN6 (UniProt Q9NWW5) 0.037, CNOT11 (UniProt Q9UKZ1) -0.029, CLEC3B (UniProt P05452) -0.066, CIRBP (UniProt Q14011) 0.103

Compound: Cc1nc(Nc2ncc(C(=O)Nc3c(C)cccc3Cl)s2)cc(N2CCN(CCO)CC2)n1 [dasatinib]
Experiment: as above
Method in brief: as §1

log2 fold change, inactive:
CHPF (UniProt Q8IZ52) -0.112, CIAO2B (UniProt Q9Y3D0) -0.271, CNOT8 (UniProt Q9UFF9) -0.182, CMPK2 (UniProt Q5EBM0) -0.076, CNN3 (UniProt Q15417) -0.057, CMTM3 (UniProt Q96MX0) 0.017, CLN3 (UniProt Q13286) 0.064, CLINT1 (UniProt Q14677) 0.142, COIL (UniProt P38432) -0.019, COL15A1 (UniProt P39059) 0.125, CLIC6 (UniProt Q96NY7) 0.163, CIR1 (UniProt Q86X95) 0.079, CMTM6 (UniProt Q9NX76) -0.018, CNIH4 (UniProt Q9P003) -0.104, CKS2 (UniProt P33552) 0.096, CHST12 (UniProt Q9NRB3) -0.017, CHST2 (UniProt Q9Y4C5) 0.087, CNOT11 (UniProt Q9UKZ1) 0.07, CLSTN1 (UniProt O94985) 0.127, CLEC3B (UniProt P05452) -0.072, CIRBP (UniProt Q14011) -0.063
